Results are given in words; binding and its absence hold for the method and conditions named. A result given as binding can be weak or reduced; the word gives no strength. Sequences can lack the tags named with a protein.
Biological target: Tubulin purified from bovine brain, polymerised to microtubules in vitro (bovine)
Assay: anti-His immunofluorescence on in vitro assembled microtubules (DIC microscopy); MTs assembled with 5 µM Centaurin-α2, without or with 30 minutes on ice, fixed with 0.5% glutaraldehyde on poly-L-lysine slides; anti-His antibody; both purified

- binding: binds
B1: His-tagged Centaurin-α2 (recombinant, pET-Centα2) (protein, UniProt Q9NPF8 1-381)
chain: MGDRERNKKRLLELLRAPDTGNAHCADCGAADPDWASYKLGIFICLNCCGVHRNFPDISRVKSVRLDFWDDSIVEFMIHNGNLRVKAKFEARVPAFYYIPQANDCLVLKEQWIRAKYERREFMADGETISLPGNREGFLWKRGRDNSQFLRRKFVLLAREGLLKYFTKEQGKSPKAVISIKDLNATFQTEKIGHPHGLQITYRRDGHTRNLFVYHESGKEIVDWFNALRAARLQYLKMAFPELPESELVPFLTRNYLKQGFMEKTGPKQKEPFKKRWFALDCHERRLLYYKNPLDAFEQGQVFLGNKEQGYEAYEDLPKGIRGNRWKAGLTIVTPERRFVLTCPSEKEQQEWLESLRGVLSSPLTPLNRLTASTESGRSSR

Source: publication PMC3527619
